{
  "source": "paper PMC2629544",
  "binders": {"B1": {"name": "Dsh DIX domain clones, yeast two-hybrid prey (domain or fragment, UniProt P51142 1-82)", "chain": "MAETKVIYHLDEEETPYLVKVPVPATDIRLRDFKAALGRGHAKYFFKAMDQDFGVVKEEISDDNAKLPCFNDRVVSWLASSE"}},
  "molecular_target": "T1, Xdsh N-terminal fragment (residues 1-268), yeast two-hybrid bait (X. laevis) (UniProt P51142)",
  "T1 sequence": "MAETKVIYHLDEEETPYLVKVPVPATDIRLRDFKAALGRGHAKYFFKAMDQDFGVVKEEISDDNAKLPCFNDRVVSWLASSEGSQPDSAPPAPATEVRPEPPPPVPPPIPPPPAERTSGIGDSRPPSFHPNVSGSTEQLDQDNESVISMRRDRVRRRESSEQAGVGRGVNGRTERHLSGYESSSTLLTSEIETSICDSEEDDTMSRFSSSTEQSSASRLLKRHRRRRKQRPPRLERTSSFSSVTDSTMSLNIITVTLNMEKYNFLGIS",
  "assay": "two-hybrid; same screen, clones reported as data not shown; bait Xdsh residues 1-268",
  "note": "These are yes or no findings as the source states them, for the method shown. Some binding calls cover weakened binding; strength is not graded here.",
  "data": [
    {"binder": "B1", "values": [
      {"measurement": "binding", "value": "binds"}
    ]}
  ]
}
